The values below come from the supplement of paper PMC7877785.

The nature of this data set: self-splicing fitness, log relative to wild type (ln ratio); higher = more splicing; Tetrahymena group I intron in knt gene, E. coli kanamycin selection, DiMSum; sequences stand for … in CUCUCU…GGAGGGAAAAGUUAUCAGGCAUGCACCUGGUAGCUAGUCUUUAAACCAAUAGAUUGCAUCGGUUUAAAAGGCAAGACCGUCAAAUUGCGGGAAAGGGGUCAACAGCCGUUCAGUACCAAGUCUCAGGGGAAACUUUGAGAUGGCCUUGCAAAGGGUAUGGUAAUAAGCUGACGGACAUGGUCCUAACCACGCAGCCAAGUCCUAAGUCAACAGAUCUUCUGUUGAUAUGGAUGCAGUUCACAGACUAAAUGUCGGUCGGGGAAGAUGUAUUCUUCUCAUAAGAUAUAGUCGGACCUCUCCUUAAUGGGAGCUAGCGGAUGAAGUGAUGCAACACUGGAGCCGCUGGGAACUAAUUUGUAUGCGAAAGUAUAUUGAUUAGUUUUGGAGUACUCGUGGUCG
The gist of the method:
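Colonies from six replicate transformations of E. coli BL21(DE3) were pooled and amplicon-sequenced on an Illumina HiSeq 2500. The library placed an intron with all eight P1ex-region nucleotides randomised inside the knt kanamycin-resistance gene on pET-22b(+), and cells grew overnight at 37°C or 30°C on LB agar with or without 25 μg/mL kanamycin (plus 100 μg/mL carbenicillin, 50 μM IPTG, 0.2% rhamnose). Fitness is the DiMSum error-weighted combination of wild-type-normalised replicate fold changes, kanamycin versus none.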

± gives the uncertainty stated by the source. The uncertainty is large for many entries.

On to AUAUAGCAAUAUUACGCUAC, for which the “self-splicing fitness (ln)” value (37 °C) is -2.01 ± 0.65.

With UCAUAGCAAUAUUACGAUCC, under “30 °C”, the “self-splicing fitness (ln)” value is -3.58 ± 1.

Regarding GGUUAGCAAUAUUACGUCAC, the “self-splicing fitness (ln)” value (30 °C) is -4.32 ± 1.

GGGAAGCAAUAUUACGCCAG: the “self-splicing fitness (ln)” value (37 °C) was -1.84 ± 1.1.

As to GAACAGCAAUAUUACGACGA, the “self-splicing fitness (ln)” value (30 °C) was -0.494 ± 0.085 and the “self-splicing fitness (ln)” value (37 °C) worked out at 0.265 ± 0.097.

In the case of CAGGAGCAAUAUUACGUCUG, the “self-splicing fitness (ln)” value (37 °C) was -3.26 ± 0.6.

As for CCAAAGCAAUAUUACGAAAA, the “self-splicing fitness (ln)” value (30 °C) is -1.93 ± 0.17 and the “self-splicing fitness (ln)” value (37 °C) was -2.85 ± 0.32.

Regarding CUGGAGCAAUAUUACGUGAG, the “self-splicing fitness (ln)” value is, setting by setting: (30 °C) -0.772 ± 0.049; (37 °C) -0.213 ± 0.063.

As for UCGUAGCAAUAUUACGCGGC, the “self-splicing fitness (ln)” value (30 °C) is -3.47 ± 1.

Regarding AACGAGCAAUAUUACGAAAA, the “self-splicing fitness (ln)” value (30 °C) is -3.39 ± 1 and the “self-splicing fitness (ln)” value (37 °C) is -1.18 ± 0.92.

Consider UAUGAGCAAUAUUACGCAAA, for which the “self-splicing fitness (ln)” value (37 °C) is -1.91 ± 0.52.

In the case of UGCUAGCAAUAUUACGGAUA, the “self-splicing fitness (ln)” value by setting is: (30 °C) -1.44 ± 0.11; (37 °C) -1.1 ± 0.13.

Consider UGAUAGCAAUAUUACGACAA, for which, where the note is “30 °C”, the “self-splicing fitness (ln)” value was -2.42 ± 0.81.

For the sequence GAAAAGCAAUAUUACGUACU, the “self-splicing fitness (ln)” value (30 °C) is -0.864 ± 0.069 and the “self-splicing fitness (ln)” value (37 °C) is -0.0522 ± 0.1.

Turning to CUGAAGCAAUAUUACGGGCC, the “self-splicing fitness (ln)” value (37 °C) is -3.1 ± 0.6.

As for UAAGAGCAAUAUUACGAUAA, the “self-splicing fitness (ln)” value is, setting by setting: (30 °C) -2.8 ± 0.5; (37 °C) -2.37 ± 0.63.

As to CUUGAGCAAUAUUACGGUAA, the “self-splicing fitness (ln)” value (30 °C) is -3.57 ± 0.73.

Turning to UAAUAGCAAUAUUACGGUGC, the “self-splicing fitness (ln)” value (30 °C) is -3.71 ± 0.6.

For the sequence UACAAGCAAUAUUACGCUGU, under “30 °C”, the “self-splicing fitness (ln)” value is -3.77 ± 1.

As for AGUUAGCAAUAUUACGUUUC, the “self-splicing fitness (ln)” value (37 °C) was -4.82 ± 1.

For the sequence CCUUAGCAAUAUUACGAAAA, the “self-splicing fitness (ln)” value runs as follows: (30 °C) -2.2 ± 0.84; (37 °C) -3.08 ± 0.74.

Regarding UGCAAGCAAUAUUACGGAGC, the “self-splicing fitness (ln)” value was -4.28 ± 0.6 (30 °C) and -3.25 ± 0.6 (37 °C).

Consider UUAGAGCAAUAUUACGAGUU, for which the “self-splicing fitness (ln)” value (30 °C) is -4.23 ± 1.

In the case of GUAGAGCAAUAUUACGCCAA, the “self-splicing fitness (ln)” value (30 °C) is -2.79 ± 0.62 and the “self-splicing fitness (ln)” value (37 °C) is -0.681 ± 1.4.

As for UGAGAGCAAUAUUACGCUGU, the “self-splicing fitness (ln)” value runs as follows: (30 °C) -3.34 ± 1.1; (37 °C) -2.2 ± 0.78.

As to GGAGAGCAAUAUUACGAUCC, the “self-splicing fitness (ln)” value (37 °C) is -2.64 ± 1.1.

On to GUCUAGCAAUAUUACGUCCC, for which the “self-splicing fitness (ln)” value is 0.0985 ± 0.14 (30 °C) and -0.0539 ± 0.14 (37 °C).

In the case of CCGGAGCAAUAUUACGGCUA, the “self-splicing fitness (ln)” value (30 °C) is -2.79 ± 1.2.

Consider UGAGAGCAAUAUUACGAAGC, for which the “self-splicing fitness (ln)” value is, setting by setting: (30 °C) -1.53 ± 0.66; (37 °C) -2.44 ± 0.55.

As for GGCGAGCAAUAUUACGCAGC, the “self-splicing fitness (ln)” value (37 °C) was -2.48 ± 0.79.

UCGUAGCAAUAUUACGAAAC: the “self-splicing fitness (ln)” value (30 °C) was -3.94 ± 0.51.

As for UUUUAGCAAUAUUACGAGGG, the “self-splicing fitness (ln)” value (37 °C) is -3.15 ± 0.52.

As for CGAGAGCAAUAUUACGCUCC, the “self-splicing fitness (ln)” value was -2.77 ± 0.76 (30 °C) and -2.67 ± 1.1 (37 °C).

As for UCUUAGCAAUAUUACGCCGC, the “self-splicing fitness (ln)” value by setting is: (30 °C) -2.88 ± 0.67; (37 °C) -1 ± 0.5.

In the case of CUGAAGCAAUAUUACGUGCC, the “self-splicing fitness (ln)” value (30 °C) was -3.5 ± 0.52.

With UGUGAGCAAUAUUACGCUCG, the “self-splicing fitness (ln)” value by setting is: (30 °C) -2.36 ± 1.2; (37 °C) -1.51 ± 0.84.

On to GUCGAGCAAUAUUACGCUGC, for which, for the setting “30 °C”, the “self-splicing fitness (ln)” value is -3.07 ± 1.1.

With GACUAGCAAUAUUACGGACC, the “self-splicing fitness (ln)” value is, setting by setting: (30 °C) -1.77 ± 0.38; (37 °C) -0.714 ± 0.39.

UCGGAGCAAUAUUACGCAAA: the “self-splicing fitness (ln)” value (30 °C) is -3.78 ± 0.6 and the “self-splicing fitness (ln)” value (37 °C) was -2.06 ± 0.67.

With CUCGAGCAAUAUUACGGAUC, the “self-splicing fitness (ln)” value (30 °C) was -3.34 ± 0.6.

Consider GGAUAGCAAUAUUACGAUCC, for which the “self-splicing fitness (ln)” value (37 °C) was -1.33 ± 0.56.

As to CUUCAGCAAUAUUACGCACU, the “self-splicing fitness (ln)” value (37 °C) was -2.85 ± 0.62.
